Results deposited as PubChem BioAssay AID652243 (Drosophila RNAi Screening Center, 2013)
The deposit covers about 24,000 reagents; below is an unselected part of those that have a named target and a result. Over the whole deposit, 246 (1%) got an active call. 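Plates not normalised; calls are printed but the firefly/Renilla ratio behind them is not deposited; fold cut for lowering reported inconsistently.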 Raw values vary from plate to plate and are shown uncorrected. Names joined by + are all predicted targets of the reagent. Not stated in the record: the amount of reagent.

- Screen: 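Fly genes required for human androgen receptor driven transcription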 (primary screen)
- System: Drosophila S2R+ cells
- Reagents: long dsRNA against Drosophila genes
- Duration: 72 h (48 h, then 24 h hormone)
- Conditions: synthetic androgen R1881 at 10 nM for 24 h
- Measurement: 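Firefly light from an androgen-responsive reporter and Renilla control light per well, raw and unnormalised, for each of two replicates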
- Scale: firefly reporter light: higher = more light from androgen-responsive reporter; Renilla control light: higher = more constitutive control signal (cell number, transfection)
- Hit rule: 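Across duplicate plates, a knock-down whose log firefly/Renilla ratio shifted a set fold down or up from the GFP/LacZ control mean was a hit; the downward cut appears as both 1.5 and 3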
- Calls: active = hit: reporter lowered or raised; inactive = no hit

firefly reporter light, replicate 1 | firefly reporter light, replicate 2 | Renilla control light, replicate 1 | Renilla control light, replicate 2 | activity call | gene | dsRNA
1.24e5 | 1.23e5 | 1.58e6 | 1.39e6 | inactive | CG10948 | DRSC09806
6.71e5 | 1.07e6 | 1.08e6 | 1.20e6 | inactive | Eip63E | DRSC08658
– | – | – | – | inactive | Eip63E | DRSC36655
2.75e5 | 3.60e5 | 1.78e6 | 1.43e6 | inactive | CG13558 | DRSC04196
2.28e5 | 2.14e5 | 6.26e5 | 9.86e5 | inactive | CG13558 | DRSC27617
1.54e5 | 1.46e5 | 1.33e6 | 1.58e6 | inactive | CG17344 | DRSC02607
2.73e5 | 1.93e5 | 3.00e6 | 2.63e6 | inactive | CG4098 | DRSC10399
5.59e5 | 3.96e5 | 1.28e6 | 5.91e5 | inactive | CG34275 (retired record) | DRSC38618
1.15e5 | 1.06e5 | 2.75e6 | 1.83e6 | inactive | Or85a | DRSC16764
78626 | 1.97e5 | 1.10e6 | 1.61e6 | inactive | Atac1 | DRSC03155
2.61e5 | 1.62e5 | 1.57e6 | 1.23e6 | inactive | CG32988 | DRSC02692
2.18e5 | 2.47e5 | 4.12e6 | 3.39e6 | inactive | CR14798 | DRSC17956
2.95e5 | 2.64e5 | 2.71e6 | 3.00e6 | inactive | serp | DRSC11035
1.91e5 | 1.79e5 | 1.84e6 | 1.58e6 | inactive | serp | DRSC11036
3.63e5 | 5.13e5 | 7.73e5 | 4.64e5 | inactive | CR18275 + CR18166 + CG32817 | DRSC17249
7.38e5 | 7.95e5 | 1.07e6 | 1.21e6 | inactive | CG33767 | DRSC37933
53601 | 67496 | 9.19e5 | 6.75e5 | inactive | CRAT | DRSC12523
4.58e5 | 4.62e5 | 1.00e6 | 1.00e6 | inactive | CRAT | DRSC29377
3.42e5 | 2.90e5 | 3.66e6 | 3.02e6 | inactive | Rala | DRSC18703
7.05e5 | 3.85e5 | 3.31e6 | 1.32e6 | inactive | Rala | DRSC27866
2.65e5 | 2.83e5 | 3.19e6 | 2.91e6 | inactive | Fcp3C | DRSC18665
2.28e5 | 1.77e5 | 1.99e6 | 1.87e6 | inactive | Atg10 + CG12822 | DRSC06796
3.50e5 | 3.11e5 | 2.25e6 | 1.64e6 | inactive | CG6675 | DRSC03735
6.13e5 | 5.72e5 | 1.68e6 | 1.37e6 | inactive | CG13131 | DRSC23253
2.12e5 | 2.49e5 | 1.64e6 | 3.52e6 | inactive | Cul5 | DRSC14723
2.23e5 | 2.04e5 | 1.58e6 | 1.54e6 | inactive | CG5122 | DRSC02816
23330 | 17462 | 3.38e5 | 3.12e5 | inactive | Papss | DRSC11246
6.56e5 | 4.73e5 | 6.85e5 | 4.84e5 | active | Papss | DRSC27101
– | – | – | – | inactive | Papss | DRSC37030
46416 | 79054 | 7.08e5 | 8.86e5 | inactive | FucTD | DRSC08634
4.22e5 | 7.12e5 | 1.53e6 | 2.37e6 | inactive | CG30197 | DRSC22394
2.55e5 | 2.94e5 | 1.92e6 | 1.49e6 | inactive | CG12395 | DRSC19453
1.27e5 | 1.90e5 | 2.64e6 | 2.64e6 | inactive | CG12863 | DRSC06203
1.11e5 | 1.17e5 | 1.50e6 | 1.44e6 | inactive | robl37BC | DRSC02472
1.99e5 | 1.71e5 | 2.43e6 | 1.60e6 | inactive | CG14085 | DRSC10089
6.32e5 | 8.46e5 | 1.67e6 | 2.04e6 | inactive | CG33647 | DRSC37823
7.58e5 | 8.89e5 | 2.97e6 | 2.16e6 | inactive | Kebab | DRSC00827
3.37e5 | 2.72e5 | 7.71e5 | 7.71e5 | inactive | Kebab | DRSC29332
80277 | 77217 | 5.41e5 | 5.87e5 | inactive | Wdr24 | DRSC14151
1.03e6 | 1.03e6 | 1.52e6 | 1.57e6 | inactive | Nop60B | DRSC04627
1.51e5 | 98043 | 1.11e6 | 7.82e5 | inactive | Ldaf1 | DRSC17963
5.23e5 | 4.92e5 | 9.74e5 | 9.47e5 | inactive | Ldaf1 | DRSC25860
68761 | 48711 | 9.06e5 | 1.04e6 | inactive | 5-HT1A | DRSC05030
2.95e5 | 3.62e5 | 6.84e5 | 7.05e5 | inactive | 5-HT1A | DRSC26404
1.45e5 | 1.85e5 | 2.40e6 | 2.03e6 | inactive | prt | DRSC16894
66626 | 80520 | 9.15e5 | 7.85e5 | inactive | E(spl)malpha-BFM | DRSC16994
3.66e5 | 6.60e5 | 7.88e5 | 1.48e6 | inactive | E(spl)malpha-BFM | DRSC28358
1.09e6 | 6.59e5 | 2.24e6 | 1.17e6 | inactive | kcc | DRSC04316
4.09e5 | 4.82e5 | 1.75e6 | 1.65e6 | inactive | kcc | DRSC04516
72307 | 89741 | 5.36e5 | 7.30e5 | inactive | mtd | DRSC12131
70783 | 59402 | 3.72e5 | 4.53e5 | inactive | mtd | DRSC12380
78290 | 88641 | 1.86e6 | 1.90e6 | inactive | mtd | DRSC12381
9.27e5 | 5.65e5 | 2.05e6 | 9.07e5 | inactive | mtd | DRSC29132
4.27e5 | 2.57e5 | 3.23e6 | 3.45e6 | inactive | CG5892 | DRSC15910
7.42e5 | 7.57e5 | 7.12e5 | 8.49e5 | inactive | CG5892 | DRSC24710
2.07e5 | 2.06e5 | 2.84e6 | 3.09e6 | inactive | CG32628 (retired record) | DRSC19405
92835 | 1.03e5 | 8.04e5 | 6.99e5 | inactive | LysRS | DRSC17824
1.11e6 | 9.99e5 | 9.60e5 | 1.27e6 | inactive | LysRS | DRSC25618

Part of the list above, showing only “firefly reporter light, replicate 2”.
serp [DRSC11036]: 1.79e5
CR18275 + CR18166 + CG32817 [DRSC17249]: 5.13e5
CG33767 [DRSC37933]: 7.95e5
CRAT [DRSC12523]: 67496
CRAT [DRSC29377]: 4.62e5
Rala [DRSC18703]: 2.90e5
Rala [DRSC27866]: 3.85e5
Fcp3C [DRSC18665]: 2.83e5
Atg10 + CG12822 [DRSC06796]: 1.77e5
